The supplement of paper PMC8728848
This is one part of the list.

How the values were obtained:
Assay in all cases: glycan array binding signal (z-score within array); higher = stronger binding
Details in all cases: glycan notation: IUPAC condensed, linker removed
[1] = molecular target: Gal(b1-4)GlcNAc(b1-3)Gal(b1-4)GlcNAc(b1-3)Gal(b1-4)GlcNAc(b1-3)Gal(b1-4)GlcNAc(b1-2)[Gal(b1-4)GlcNAc(b1-3)Gal(b1-4)GlcNAc(b1-3)Gal(b1-4)GlcNAc(b1-3)Gal(b1-4)GlcNAc(b1-6)]Man(a1-6)[Gal(b1-4)GlcNAc(b1-3)Gal(b1-4)GlcNAc(b1-3)Gal(b1-4)GlcNAc(b1-3)Gal(b1-4)GlcNAc(b1-2)Man(a1-3)]Man(b1-4)GlcNAc(b1-4)[Fuc(a1-6)]GlcNAc
In short: (§1)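 Columns mapping to the same glycan were averaged after glycan names were converted to IUPAC-condensed notation. The data come from 3228 arrays in the Consortium for Functional Glycomics database, limited to those with an available protein sequence. Binding is reported as a within-array Z-score averaged across arrays of one protein sequence and across linkers.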

[2] = molecular target: Gal(b1-4)GlcNAc(b1-3)Gal(b1-4)GlcNAc(b1-3)Gal(b1-4)GlcNAc(b1-3)Gal(b1-4)GlcNAc(b1-3)Gal(b1-4)GlcNAc(b1-2)Man(a1-3)[Gal(b1-4)GlcNAc(b1-3)Gal(b1-4)GlcNAc(b1-3)Gal(b1-4)GlcNAc(b1-3)Gal(b1-4)GlcNAc(b1-3)Gal(b1-4)GlcNAc(b1-2)Man(a1-6)]Man(b1-4)GlcNAc(b1-4)GlcNAc
In short: as §1

[3] = molecular target: Gal(b1-4)GlcNAc(b1-3)Gal(b1-4)GlcNAc(b1-3)Gal(b1-4)GlcNAc(b1-3)Gal(b1-4)GlcNAc(b1-3)Gal(b1-4)GlcNAc(b1-2)Man(a1-3)[Gal(b1-4)GlcNAc(b1-3)Gal(b1-4)GlcNAc(b1-3)Gal(b1-4)GlcNAc(b1-3)Gal(b1-4)GlcNAc(b1-3)Gal(b1-4)GlcNAc(b1-2)Man(a1-6)]Man(b1-4)GlcNAc(b1-4)[Fuc(a1-6)]GlcNAc
In short: as §1

[4] = molecular target: Gal(b1-4)GlcNAc(b1-3)Gal(b1-4)GlcNAc(b1-3)Gal(b1-4)GlcNAc(b1-3)Gal(b1-4)GlcNAc(b1-3)Gal(b1-4)GlcNAc(b1-2)[Gal(b1-4)GlcNAc(b1-3)Gal(b1-4)GlcNAc(b1-3)Gal(b1-4)GlcNAc(b1-3)Gal(b1-4)GlcNAc(b1-3)Gal(b1-4)GlcNAc(b1-6)]Man(a1-6)[Gal(b1-4)GlcNAc(b1-3)Gal(b1-4)GlcNAc(b1-3)Gal(b1-4)GlcNAc(b1-3)Gal(b1-4)GlcNAc(b1-3)Gal(b1-4)GlcNAc(b1-2)Man(a1-3)]Man(b1-4)GlcNAc(b1-4)[Fuc(a1-6)]GlcNAc
In short: as §1

[5] = molecular target: Gal(b1-4)GlcNAc(b1-3)Gal(b1-4)GlcNAc(b1-3)Gal(b1-4)GlcNAc(b1-3)Gal(b1-4)GlcNAc(b1-3)Gal(b1-4)GlcNAc(b1-3)Gal(b1-4)GlcNAc(b1-2)Man(a1-3)[Gal(b1-4)GlcNAc(b1-3)Gal(b1-4)GlcNAc(b1-3)Gal(b1-4)GlcNAc(b1-3)Gal(b1-4)GlcNAc(b1-3)Gal(b1-4)GlcNAc(b1-3)Gal(b1-4)GlcNAc(b1-2)Man(a1-6)]Man(b1-4)GlcNAc(b1-4)GlcNAc
In short: as §1

[6] = molecular target: Gal(b1-4)GlcNAc(b1-3)Gal(b1-4)GlcNAc(b1-3)GalNAc
In short: as §1

[7] = molecular target: Gal(b1-4)GlcNAc(b1-3)Gal(b1-4)GlcNAc(b1-3)[Gal(b1-4)GlcNAc(b1-3)Gal(b1-4)GlcNAc(b1-6)]GalNAc
In short: as §1

[8] = molecular target: Gal(b1-4)GlcNAc(b1-3)Gal(b1-4)GlcNAc(b1-6)[Gal(b1-3)]GalNAc
In short: as §1

[9] = molecular target: Gal(b1-4)GlcNAc(b1-3)Gal(b1-4)[Fuc(a1-3)]GlcNAc(b1-3)Gal(b1-4)[Fuc(a1-3)]GlcNAc
In short: as §1

[10] = molecular target: Gal(b1-4)GlcNAc(b1-3)GalNAc
In short: as §1

[11] = molecular target: Gal(b1-4)GlcNAc(b1-3)[Fuc(a1-3)GlcNAc(b1-6)]Gal(b1-4)Glc
In short: as §1

[12] = molecular target: Gal(b1-4)GlcNAc(b1-3)[Gal(b1-4)GlcNAc(b1-6)]Gal(b1-4)GlcNAc
In short: as §1

[13] = molecular target: Gal(b1-4)GlcNAc(b1-3)[GlcNAc(b1-6)]Gal(b1-4)GlcNAc
In short: as §1

[14] = molecular target: Gal(b1-4)GlcNAc(b1-6)Gal(b1-4)GlcNAc
In short: as §1

[15] = molecular target: Gal(b1-4)GlcNAc(b1-6)GalNAc
In short: as §1

[16] = molecular target: Gal(b1-4)GlcNAc(b1-6)[Gal(b1-3)]GalNAc
In short: as §1

[17] = molecular target: Gal(b1-4)GlcNAc(b1-6)[Gal(b1-4)GlcNAc(b1-3)]GalNAc
In short: as §1

[18] = molecular target: Gal(b1-4)GlcNAc6P
In short: as §1

[19] = molecular target: Gal(b1-6)Gal
In short: as §1

[20] = molecular target: Gal3S(b1-3)GalNAc
In short: as §1

[21] = molecular target: Gal3S(b1-3)GlcNAc
In short: as §1

[22] = molecular target: Gal3S(b1-3)[Fuc(a1-4)]GlcNAc
In short: as §1

[23] = molecular target: Gal3S(b1-4)Glc
In short: as §1

B1: Pbx1CASH domain (Cryptococcus neoformans) (protein)
chain: MDETKPLWGNPRADGISLACKDSIVERNVVYDATDGAIVLFGSAGSTVKNNHVYARTRVILGGINLVDYEPWDGDYTNVKVHHNHLYALGRYFKVGIVIGPASWSDDTESVVHSASVTDNEFSGGYWGYGIVVASAKNFEVLRNKVIWDGEQGVARFSGVPGS
[1]
  glycan array binding signal (z-score): -0.458
[2]
  glycan array binding signal (z-score): -0.019
[3]
  glycan array binding signal (z-score): -0.419
[4]
  glycan array binding signal (z-score): -0.397
[5]
  glycan array binding signal (z-score): 0.91
[6]
  glycan array binding signal (z-score): 2.28
[7]
  glycan array binding signal (z-score): 4.67
[8]
  glycan array binding signal (z-score): 2.73
[9]
  glycan array binding signal (z-score): -0.319
[10]
  glycan array binding signal (z-score): -0.508
[11]
  glycan array binding signal (z-score): 0.63
[12]
  glycan array binding signal (z-score): -0.937
[13]
  glycan array binding signal (z-score): -0.595
[14]
  glycan array binding signal (z-score): -0.145
[15]
  glycan array binding signal (z-score): -0.497
[16]
  glycan array binding signal (z-score): -0.463
[17]
  glycan array binding signal (z-score): 0.617
[18]
  glycan array binding signal (z-score): -0.546
[19]
  glycan array binding signal (z-score): 1.21
[20]
  glycan array binding signal (z-score): -0.209
[21]
  glycan array binding signal (z-score): -0.497
[22]
  glycan array binding signal (z-score): -0.138
[23]
  glycan array binding signal (z-score): -0.695
